Data published in publication PMC9122951.
No constants are given. Whether binding was seen depends on the method and setting. Binding seen in cells or lysates may run through a third protein. Some binding calls cover weakened binding; strength is not graded here.

Protein sequences, listed by entry. Tags and fused reporters are not part of them.
UniProt P10275: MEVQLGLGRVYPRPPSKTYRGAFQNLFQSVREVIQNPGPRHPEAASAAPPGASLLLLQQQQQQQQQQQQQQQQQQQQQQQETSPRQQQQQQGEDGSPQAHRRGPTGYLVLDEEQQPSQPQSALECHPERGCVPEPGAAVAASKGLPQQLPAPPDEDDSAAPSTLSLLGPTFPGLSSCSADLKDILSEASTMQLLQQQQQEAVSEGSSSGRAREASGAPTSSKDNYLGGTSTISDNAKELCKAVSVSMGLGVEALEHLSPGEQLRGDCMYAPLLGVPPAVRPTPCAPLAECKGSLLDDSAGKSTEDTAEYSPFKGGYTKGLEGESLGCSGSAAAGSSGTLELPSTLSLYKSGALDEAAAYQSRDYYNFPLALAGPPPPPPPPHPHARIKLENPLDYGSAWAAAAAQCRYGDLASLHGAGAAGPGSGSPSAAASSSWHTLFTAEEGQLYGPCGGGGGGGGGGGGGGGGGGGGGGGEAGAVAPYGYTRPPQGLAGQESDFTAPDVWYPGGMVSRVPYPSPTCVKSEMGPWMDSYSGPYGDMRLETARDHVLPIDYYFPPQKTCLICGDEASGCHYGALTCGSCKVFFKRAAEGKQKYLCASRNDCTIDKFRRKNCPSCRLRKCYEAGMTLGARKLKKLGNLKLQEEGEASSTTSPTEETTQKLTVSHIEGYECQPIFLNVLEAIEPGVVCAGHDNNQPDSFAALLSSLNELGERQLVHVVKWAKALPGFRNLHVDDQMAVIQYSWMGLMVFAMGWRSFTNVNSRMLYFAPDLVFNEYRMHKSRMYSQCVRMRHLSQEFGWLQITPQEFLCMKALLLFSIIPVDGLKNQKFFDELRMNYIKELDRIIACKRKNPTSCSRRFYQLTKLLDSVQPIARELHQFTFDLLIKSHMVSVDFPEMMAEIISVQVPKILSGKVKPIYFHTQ
UniProt Q96AC1: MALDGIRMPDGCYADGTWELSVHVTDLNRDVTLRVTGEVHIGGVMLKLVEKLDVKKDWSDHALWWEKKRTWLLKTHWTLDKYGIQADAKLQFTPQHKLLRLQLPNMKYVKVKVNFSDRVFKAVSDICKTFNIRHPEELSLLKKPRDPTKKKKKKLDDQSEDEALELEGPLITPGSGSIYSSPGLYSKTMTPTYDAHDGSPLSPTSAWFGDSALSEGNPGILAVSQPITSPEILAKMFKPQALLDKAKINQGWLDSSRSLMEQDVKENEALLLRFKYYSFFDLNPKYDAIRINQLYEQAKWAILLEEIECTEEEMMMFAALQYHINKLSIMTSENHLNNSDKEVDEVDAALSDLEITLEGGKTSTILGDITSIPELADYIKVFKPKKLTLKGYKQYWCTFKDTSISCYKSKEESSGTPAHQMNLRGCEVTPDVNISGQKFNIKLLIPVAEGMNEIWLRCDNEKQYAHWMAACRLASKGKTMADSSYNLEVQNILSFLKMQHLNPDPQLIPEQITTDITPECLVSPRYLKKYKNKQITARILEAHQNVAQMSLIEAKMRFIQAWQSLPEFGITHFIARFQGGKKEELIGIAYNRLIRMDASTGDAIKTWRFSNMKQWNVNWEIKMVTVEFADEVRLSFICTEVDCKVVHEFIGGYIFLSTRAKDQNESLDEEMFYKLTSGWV

What was measured:
[1] = biological target: Androgen receptor (human (endogenous in BT549 and MDA-MB-453)) (UniProt P10275); assay: co-IP; endogenous proteins in BT549 or MDA-MB-453 cell lysates (3 mg); IP with anti-Kindlin-2 (clone 3A3) or anti-AR antibody on protein A/G-Sepharose, overnight at 4 °C, control mouse or rabbit IgG, immunoblot; also control siRNA against Kindlin-2 siRNA BT549 cells (anti-AR IP, Fig. 1E)
[2] = biological target: Flag-tagged wild-type Kindlin-2 (UniProt Q96AC1); assay: co-IP; lysates of Kindlin-2 knockdown BT549 cells infected with lentivirus encoding 3×Flag-tagged Kindlin-2 WT, ΔF1 or ΔF0; IP with anti-Flag antibody, immunoblot for endogenous AR and Src
[3] = biological target: GST-fusion protein containing full-length Kindlin-2 (UniProt Q96AC1); assay: pull-down; GST-fusion proteins bound to Glutathione-Sepharose, mixed with BT549 cell lysates overnight at 4 °C, washed three times with PBS containing 0.2% Triton X-100, immunoblot for endogenous AR; only the target purified
[4] = biological target: Kindlin-2 (human (endogenous in BT549 and MDA-MB-453)) (UniProt Q96AC1); assay: co-IP; endogenous proteins in BT549 or MDA-MB-453 cell lysates (3 mg); IP with anti-Kindlin-2 (clone 3A3) or anti-AR antibody on protein A/G-Sepharose, overnight at 4 °C, control mouse or rabbit IgG, immunoblot; also control siRNA against Kindlin-2 siRNA BT549 cells (anti-AR IP, Fig. 1E)

Substance	binding [1]	binding [2]	binding [3]	binding [4]
Kindlin-2 (from UniProt Q96AC1 1-680)	binds	–	–	–
Androgen receptor (from UniProt P10275 1-920)	–	binds	binds	binds
